# Results: PMC10653843
# Where a chain is given by its changes, count along the chain named. Numbers in names are those of the source. These are yes or no findings as the source states them, for the method shown. In cells and extracts the contact can be indirect. Binding can be weak; no strength is given.
# B1: human PSGL-1 (protein, UniProt Q14242 42-412)
# chain: QATEYEYLDYDFLPETEPPEMLRNSTDTTPLTGPGTPESTTVEPAARRSTGLDAGGAVTELTTELANMGNLSTDSAAMEIQTTQPAATEAQTTQPVPTEAQTTPLAATEAQTTRLTATEAQTTPLAATEAQTTPPAATEAQTTQPTGLEAQTTAPAAMEAQTTAPAAMEAQTTPPAAMEAQTTQTTAMEAQTTAPEATEAQTTQPTATEAQTTPLAAMEALSTEPSATEALSMEPTTKRGLFIPFSVSSVTHKGIPMAASNLSVNYPVGAPDHISVKQCLLAILILALVATIFFVCTVVLAVRLSRKGHMYPVRNYSPTEMVCISSLLPDGGEGPSATANGGLSKAKSPGLTPEPREDREGDDLTLHSFLP
# B2: human PSGL-1 T379A (protein, UniProt Q14242 42-412)
# chain: B1 chain with T338A
# Target: Myc-Vpu (HIV-1)
# Assay: co-IP; two batches of HEK293T cells transfected separately (FLAG-tagged hPSGL-1 WT or T379A; Myc-Vpu or Myc-Vpu A14L), lysates mixed, Vpu precipitated with anti-Myc magnetic beads overnight at 4°C; Western blot
row,Binder,binding
1,B1,binds
2,B2,no binding
